# Measured values taken from the supplement of paper PMC8728848.
# The list shows a part of the results.
# B1: HHL-2 (Homo sapiens), P07307 (protein)
# chain: MAKDFQDIQQLSSEENDHPFHQGEGPGTRRLNPRRGNPFLKGPPPAQPLAQRLCSMVCFSLLALSFNILLLVVICVTGSQSEGHRGAQLQAELRSLKEAFSNFSSSTLTEVQAISTHGGSVGDKITSLGAKLEKQQQDLKADHDALLFHLKHFPVDLRFVACQMELLHSNGSQRTCCPVNWVEHQGSCYWFSHSGKAWAEAEKYCQLENAHLVVINSWEEQKFIVQHTNPFNTWIGLTDSDGSWKWVDGTDYRHNYKNWAVTQPDNWHGHELGGSEDCVEVQPDGRWNDDFCLQVYRWVCEKRRNATGEVA
# Columns and labels:
# Assay in all cases: glycan array binding signal (z-score within array); higher = stronger binding
# Conditions in all cases: glycan notation: IUPAC condensed, linker removed
# [1] = target: GalNAc(a1-3)Gal
# Method in brief: (§1)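 Columns mapping to the same glycan were averaged after glycan names were converted to IUPAC-condensed notation. The data come from 3228 arrays in the Consortium for Functional Glycomics database, limited to those with an available protein sequence. Binding is reported as a within-array Z-score averaged across arrays of one protein sequence and across linkers.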
# [2] = target: GalNAc(a1-3)GalNAc
# Method in brief: as §1
# [3] = target: GalNAc(b1-3)Gal
# Method in brief: as §1
# [4] = target: GalNAc(b1-3)Gal(a1-4)Gal(b1-4)GlcNAc
# Method in brief: as §1
# [5] = target: GalNAc(b1-3)Gal(a1-4)Gal(b1-4)GlcNAc(b1-3)Gal(b1-4)Glc
# Method in brief: as §1
# [6] = target: GalNAc(b1-3)GalNAc
# Method in brief: as §1
# [7] = target: GalNAc(b1-4)GlcNAc
# Method in brief: as §1
# [8] = target: GalNAc(b1-4)GlcNAc(b1-2)Man(a1-3)[GalNAc(b1-4)GlcNAc(b1-2)Man(a1-6)]Man(b1-4)GlcNAc(b1-4)GlcNAc
# Method in brief: as §1
# [9] = target: Glc(a1-4)Glc
# Method in brief: as §1
# [10] = target: Glc(a1-6)Glc(a1-6)Glc
# Method in brief: as §1
# [11] = target: Glc(b1-4)Glc
# Method in brief: as §1
# [12] = target: Glc(b1-6)Glc
# Method in brief: as §1
# [13] = target: GlcA(b1-3)Gal
# Method in brief: as §1
# [14] = target: GlcA(b1-3)GlcNAc
# Method in brief: as §1
# [15] = target: GlcA(b1-6)Gal
# Method in brief: as §1
# [16] = target: GlcNAc(a1-3)Gal(b1-4)GlcNAc
# Method in brief: as §1
# [17] = target: GlcNAc(a1-4)Gal(b1-3)GlcNAc
# Method in brief: as §1
# [18] = target: GlcNAc(a1-4)Gal(b1-4)GalNAc
# Method in brief: as §1
# [19] = target: GlcNAc(a1-4)Gal(b1-4)GlcNAc
# Method in brief: as §1
# [20] = target: GlcNAc(a1-4)Gal(b1-4)GlcNAc(b1-3)Gal(b1-4)Glc
# Method in brief: as §1
# [21] = target: GlcNAc(a1-4)Gal(b1-4)GlcNAc(b1-3)Gal(b1-4)GlcNAc
# Method in brief: as §1
# [22] = target: GlcNAc(a1-4)Gal(b1-4)GlcNAc(b1-3)Gal(b1-4)GlcNAc(b1-3)Gal(b1-4)GlcNAc
# Method in brief: as §1
# [23] = target: GlcNAc(a1-4)Gal(b1-4)GlcNAc(b1-3)Gal(b1-4)[Fuc(a1-3)]GlcNAc(b1-3)Gal(b1-4)[Fuc(a1-3)]GlcNAc
# Method in brief: as §1
# [24] = target: GlcNAc(a1-6)Gal(b1-4)GlcNAc
# Method in brief: as §1
# [25] = target: GlcNAc(b1-2)Gal(b1-3)GalNAc
# Method in brief: as §1
# [26] = target: GlcNAc(b1-2)Man(a1-3)[GlcNAc(b1-2)Man(a1-6)]Man(b1-4)GlcNAc(b1-4)GlcNAc
# Method in brief: as §1
# [27] = target: GlcNAc(b1-2)Man(a1-3)[GlcNAc(b1-2)Man(a1-6)]Man(b1-4)GlcNAc(b1-4)[Fuc(a1-6)]GlcNAc
# Method in brief: as §1
# [28] = target: GlcNAc(b1-3)Gal
# Method in brief: as §1
# [29] = target: GlcNAc(b1-3)Gal(b1-3)GalNAc
# Method in brief: as §1
# [30] = target: GlcNAc(b1-3)Gal(b1-4)Glc
# Method in brief: as §1
# [31] = target: GlcNAc(b1-3)Gal(b1-4)GlcNAc
# Method in brief: as §1
# [32] = target: GlcNAc(b1-3)Gal(b1-4)GlcNAc(b1-3)Gal(b1-4)GlcNAc
# Method in brief: as §1
# [33] = target: GlcNAc(b1-3)GalNAc
# Method in brief: as §1
# [34] = target: GlcNAc(b1-3)Man
# Method in brief: as §1
# [35] = target: GlcNAc(b1-3)[GlcNAc(b1-4)][GlcNAc(b1-6)]GlcNAc
# Method in brief: as §1
# [36] = target: GlcNAc(b1-3)[GlcNAc(b1-6)]Gal(b1-4)GlcNAc
# Method in brief: as §1
# [37] = target: GlcNAc(b1-3)[GlcNAc(b1-6)]GalNAc
# Method in brief: as §1
# [38] = target: GlcNAc(b1-4)Gal(b1-4)GlcNAc
# Method in brief: as §1
binder,measurement,setting,value
B1,glycan array binding signal (z-score),[1],-0.378
same,glycan array binding signal (z-score),[2],-0.715
same,glycan array binding signal (z-score),[3],0.208
same,glycan array binding signal (z-score),[4],0.336
same,glycan array binding signal (z-score),[5],-0.49
same,glycan array binding signal (z-score),[6],0.593
same,glycan array binding signal (z-score),[7],-0.795
same,glycan array binding signal (z-score),[8],3.17
same,glycan array binding signal (z-score),[9],-0.322
same,glycan array binding signal (z-score),[10],-0.425
same,glycan array binding signal (z-score),[11],-0.859
same,glycan array binding signal (z-score),[12],-0.914
same,glycan array binding signal (z-score),[13],-0.102
same,glycan array binding signal (z-score),[14],-0.012
same,glycan array binding signal (z-score),[15],0.662
same,glycan array binding signal (z-score),[16],-0.572
same,glycan array binding signal (z-score),[17],0.252
same,glycan array binding signal (z-score),[18],-0.538
same,glycan array binding signal (z-score),[19],-0.571
same,glycan array binding signal (z-score),[20],-0.428
same,glycan array binding signal (z-score),[21],-0.284
same,glycan array binding signal (z-score),[22],-0.327
same,glycan array binding signal (z-score),[23],2.64
same,glycan array binding signal (z-score),[24],-0.458
same,glycan array binding signal (z-score),[25],-0.793
same,glycan array binding signal (z-score),[26],-0.677
same,glycan array binding signal (z-score),[27],0.079
same,glycan array binding signal (z-score),[28],-0.705
same,glycan array binding signal (z-score),[29],-0.381
same,glycan array binding signal (z-score),[30],-0.486
same,glycan array binding signal (z-score),[31],-0.827
same,glycan array binding signal (z-score),[32],-0.333
same,glycan array binding signal (z-score),[33],-0.745
same,glycan array binding signal (z-score),[34],-0.467
same,glycan array binding signal (z-score),[35],-0.642
same,glycan array binding signal (z-score),[36],-0.752
same,glycan array binding signal (z-score),[37],-0.617
same,glycan array binding signal (z-score),[38],-0.672

# Some of the entries above, set out differently:
binder	measurement	setting	value
B1	glycan array binding signal (z-score)	[19]	-0.571
same	glycan array binding signal (z-score)	[20]	-0.428
same	glycan array binding signal (z-score)	[21]	-0.284
same	glycan array binding signal (z-score)	[22]	-0.327
same	glycan array binding signal (z-score)	[23]	2.64
same	glycan array binding signal (z-score)	[24]	-0.458
same	glycan array binding signal (z-score)	[25]	-0.793
same	glycan array binding signal (z-score)	[26]	-0.677
same	glycan array binding signal (z-score)	[27]	0.079
same	glycan array binding signal (z-score)	[28]	-0.705
